Results deposited as PubChem BioAssay AID1053208 (Peter MacCallum Cancer Centre, 2014).
Shown is one part, drawn at random, of about 17,000 reagents. In the full data, 788 (4.7%) are marked active. 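Calls rest on z-score classes alone; an extra cut-off of viability at most 70% of control was not applied to them.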 A number with no mark means an inactive call.

Test: 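Synthetic lethal interactions between gene loss and doxorubicin in osteosarcoma cells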 (primary screen)
Cell system: mouse osteosarcoma cells, early-passage culture from an engineered mouse model of fibroblastic bone tumour
Reagents: siRNA pool against mouse genes, 40 nM
Duration: about 120 h (48 h before drug, then 72 h with drug)
Conditions: doxorubicin 100 nM for 72 h, roughly 30-40% inhibitory dose
Measured: 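Viability read as ATP luminescence after 72 h of 100 nM doxorubicin or none, duplicate wells averaged, scaled to non-targeting siRNA, then expressed as robust z-scores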
Scale: viability z-score with doxorubicin and doxorubicin viability vs non-targeting: higher = more viable cells under doxorubicin; viability z-score without drug: higher = more viable cells with knock-down alone; z-score of drug to no-drug ratio: higher = less drug sensitisation by knock-down
Active means: 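Called active if knock-down leaves viability unchanged without drug (z within -2 to 2) but lowers it with doxorubicin (z at or under -2)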

| gene knocked down | combined z-score class | viability z-score with doxorubicin | viability z-score without drug | z-score of drug to no-drug ratio | doxorubicin viability vs non-targeting |
| --- | --- | --- | --- | --- | --- |
| Atp6v0d1 (ATPase, H+ transporting, lysosomal V0 subunit D1) | no change with or without drug | -0.11 | -0.17 | 0.11 | 0.93 |
| Stat1 (signal transducer and activator of transcription 1) | no change with or without drug | 0.34 | -0.17 | 0.56 | 0.97 |
| Unc119 (unc-119 lipid binding chaperone) | no change with or without drug | 0.45 | 0.17 | 0.45 | 0.98 |
| Or8k3b (olfactory receptor family 8 subfamily K member 3B) | low cell count without drug only | -0.9 | -2.19 | 0.79 | 0.86 |
| Vdac3 (voltage-dependent anion channel 3) | no change with or without drug | -1.12 | -1.52 | 0 | 0.84 |
| Inf2 (inverted formin, FH2 and WH2 domain containing) | high cell count with doxorubicin only | 2.02 | 0.34 | 1.91 | 1.12 |
| F2r (coagulation factor II thrombin receptor) | no change with or without drug | -0.22 | -0.17 | 0 | 0.92 |
| Stk38l (serine/threonine kinase 38 like) | no change with or without drug | -1.35 | -1.69 | -0.22 | 0.82 |
| Tas2r118 (taste receptor, type 2, member 118) | no change with or without drug | 0 | -0.17 | 0.22 | 0.94 |
| Sytl3 (synaptotagmin-like 3) | no change with or without drug | 0.67 | -0.84 | 1.46 | 1 |
| Gm4792 (predicted gene 4792) | no change with or without drug | -0.11 | 1.01 | -0.67 | 0.93 |
| Spon2 (spondin 2, extracellular matrix protein) | no change with or without drug | -0.11 | -0.51 | 0.34 | 0.93 |
| Rgs3 (regulator of G-protein signaling 3) | no change with or without drug | -0.22 | -1.18 | 0.79 | 0.92 |
| Wrn (Werner syndrome RecQ like helicase) | no change with or without drug | -0.45 | -0.67 | 0.11 | 0.9 |
| Lrit2 | no change with or without drug | 1.35 | 0.84 | 0.9 | 1.06 |
| Raet1e (retinoic acid early transcript 1E) | no change with or without drug | 0.9 | 0.84 | 0.45 | 1.02 |
| B130040O20Rik (RIKEN cDNA B130040O20 gene) | no change with or without drug | -1.57 | -0.34 | -1.35 | 0.8 |
| Or2a5 (olfactory receptor family 2 subfamily A member 5) | no change with or without drug | 0.45 | -0.67 | 1.12 | 0.98 |
| Scrt1 (scratch family zinc finger 1) | high cell count without drug only | 0.67 | 2.02 | -0.56 | 1 |
| Sugct (succinyl-CoA glutarate-CoA transferase) | no change with or without drug | -0.9 | -0.34 | -0.67 | 0.86 |

A run of entries of the results above, as a working copy:
| gene knocked down | combined z-score class | viability z-score with doxorubicin | viability z-score without drug | z-score of drug to no-drug ratio | doxorubicin viability vs non-targeting |
| --- | --- | --- | --- | --- | --- |
| Atp6v0d1 (ATPase, H+ transporting, lysosomal V0 subunit D1) | no change with or without drug | -0.11 | -0.17 | 0.11 | 0.93 |
| Stat1 (signal transducer and activator of transcription 1) | no change with or without drug | 0.34 | -0.17 | 0.56 | 0.97 |
| Unc119 (unc-119 lipid binding chaperone) | no change with or without drug | 0.45 | 0.17 | 0.45 | 0.98 |
| Or8k3b (olfactory receptor family 8 subfamily K member 3B) | low cell count without drug only | -0.9 | -2.19 | 0.79 | 0.86 |

Continued.
| gene knocked down | combined z-score class | viability z-score with doxorubicin | viability z-score without drug | z-score of drug to no-drug ratio | doxorubicin viability vs non-targeting |
| --- | --- | --- | --- | --- | --- |
| Vezf1 (vascular endothelial zinc finger 1) | no change with or without drug | 1.12 | 0.51 | 0.9 | 1.04 |
| Wnt16 (WNT family member 16) | no change with or without drug | -0.45 | -0.17 | -0.22 | 0.9 |
| Il13ra2 (interleukin 13 receptor, alpha 2) | no change with or without drug | 1.91 | 1.18 | 1.24 | 1.11 |
| Klk8 (kallikrein related-peptidase 8) | no change with or without drug | 0.34 | 1.85 | -0.67 | 0.97 |
| Asb3 (ankyrin repeat and SOCS box-containing 3) | no change with or without drug | -0.45 | -0.17 | -0.22 | 0.9 |
| Rnf216 (ring finger protein 216) | no change with or without drug | -0.45 | -0.51 | 0 | 0.9 |
| Pif1 (PIF1 5'-to-3' DNA helicase) | no change with or without drug | 0 | 0.67 | -0.34 | 0.94 |
| Ngp (neutrophilic granule protein) | no change with or without drug | 0.9 | 1.18 | 0.22 | 1.02 |
| Pla2g12b (phospholipase A2, group XIIB) | no change with or without drug | 0.67 | -0.84 | 1.46 | 1 |
| Acadl (acyl-Coenzyme A dehydrogenase, long-chain) | high cell count with doxorubicin only | 2.02 | 1.35 | 1.24 | 1.12 |
| Vmn1r198 (vomeronasal 1 receptor 198) | low cell count with doxorubicin only (active) | -2.47 | 0.51 | -2.81 | 0.72 |
| Clasrp (CLK4-associating serine/arginine rich protein) | no change with or without drug | 0 | 0.51 | -0.22 | 0.94 |
| Ip6k1 (inositol hexaphosphate kinase 1) | no change with or without drug | 1.01 | 0.34 | 0.9 | 1.03 |
| Cfap418 (cilia and flagella associated protein 418) | no change with or without drug | -0.79 | 0.17 | -0.79 | 0.87 |
